Assay results taken from the supplement of paper PMC10849652.
The other results are listed elsewhere or left out.

The chains behind the UniProt entries cited, without tags or fusion partners. Where a name states a change or a piece, a line headed by the entry shows the natural chain unless it says otherwise.
UniProt Q15165: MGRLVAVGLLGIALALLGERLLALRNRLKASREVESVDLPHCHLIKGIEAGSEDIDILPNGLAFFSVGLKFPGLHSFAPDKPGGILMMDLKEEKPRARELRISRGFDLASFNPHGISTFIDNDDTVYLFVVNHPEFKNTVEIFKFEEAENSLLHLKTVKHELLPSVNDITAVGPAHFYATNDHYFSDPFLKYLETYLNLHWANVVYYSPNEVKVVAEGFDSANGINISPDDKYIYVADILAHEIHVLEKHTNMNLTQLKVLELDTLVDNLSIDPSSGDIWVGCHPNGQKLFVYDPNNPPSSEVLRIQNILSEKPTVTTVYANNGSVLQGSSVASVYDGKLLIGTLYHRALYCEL
UniProt O75817: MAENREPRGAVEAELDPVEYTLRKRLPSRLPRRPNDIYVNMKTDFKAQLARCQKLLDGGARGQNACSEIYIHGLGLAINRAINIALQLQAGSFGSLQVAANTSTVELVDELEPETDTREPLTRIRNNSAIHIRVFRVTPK
UniProt Q6P1K2: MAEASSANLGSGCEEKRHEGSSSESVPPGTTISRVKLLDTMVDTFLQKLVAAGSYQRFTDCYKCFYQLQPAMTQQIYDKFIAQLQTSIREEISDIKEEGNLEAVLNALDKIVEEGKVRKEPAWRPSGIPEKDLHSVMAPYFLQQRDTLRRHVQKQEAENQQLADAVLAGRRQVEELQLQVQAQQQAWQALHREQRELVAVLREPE
UniProt Q8NBL1: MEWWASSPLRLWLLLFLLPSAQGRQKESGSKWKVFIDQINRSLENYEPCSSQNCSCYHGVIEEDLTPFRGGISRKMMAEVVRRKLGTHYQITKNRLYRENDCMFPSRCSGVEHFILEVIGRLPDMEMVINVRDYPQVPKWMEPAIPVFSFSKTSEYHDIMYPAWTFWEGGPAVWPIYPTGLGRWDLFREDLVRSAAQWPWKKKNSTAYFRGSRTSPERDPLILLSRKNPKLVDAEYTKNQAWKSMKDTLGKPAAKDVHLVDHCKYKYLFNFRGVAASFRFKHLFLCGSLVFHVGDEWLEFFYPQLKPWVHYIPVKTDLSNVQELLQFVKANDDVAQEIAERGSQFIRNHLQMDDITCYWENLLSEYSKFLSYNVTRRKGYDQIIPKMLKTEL
UniProt Q9NRX1: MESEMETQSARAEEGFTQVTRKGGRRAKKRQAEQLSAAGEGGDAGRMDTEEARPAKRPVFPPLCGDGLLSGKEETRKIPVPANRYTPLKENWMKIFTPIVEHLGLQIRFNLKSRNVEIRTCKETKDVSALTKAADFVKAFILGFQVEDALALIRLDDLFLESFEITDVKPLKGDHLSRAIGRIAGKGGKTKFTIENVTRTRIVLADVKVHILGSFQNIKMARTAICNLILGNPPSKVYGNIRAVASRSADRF
UniProt Q99575: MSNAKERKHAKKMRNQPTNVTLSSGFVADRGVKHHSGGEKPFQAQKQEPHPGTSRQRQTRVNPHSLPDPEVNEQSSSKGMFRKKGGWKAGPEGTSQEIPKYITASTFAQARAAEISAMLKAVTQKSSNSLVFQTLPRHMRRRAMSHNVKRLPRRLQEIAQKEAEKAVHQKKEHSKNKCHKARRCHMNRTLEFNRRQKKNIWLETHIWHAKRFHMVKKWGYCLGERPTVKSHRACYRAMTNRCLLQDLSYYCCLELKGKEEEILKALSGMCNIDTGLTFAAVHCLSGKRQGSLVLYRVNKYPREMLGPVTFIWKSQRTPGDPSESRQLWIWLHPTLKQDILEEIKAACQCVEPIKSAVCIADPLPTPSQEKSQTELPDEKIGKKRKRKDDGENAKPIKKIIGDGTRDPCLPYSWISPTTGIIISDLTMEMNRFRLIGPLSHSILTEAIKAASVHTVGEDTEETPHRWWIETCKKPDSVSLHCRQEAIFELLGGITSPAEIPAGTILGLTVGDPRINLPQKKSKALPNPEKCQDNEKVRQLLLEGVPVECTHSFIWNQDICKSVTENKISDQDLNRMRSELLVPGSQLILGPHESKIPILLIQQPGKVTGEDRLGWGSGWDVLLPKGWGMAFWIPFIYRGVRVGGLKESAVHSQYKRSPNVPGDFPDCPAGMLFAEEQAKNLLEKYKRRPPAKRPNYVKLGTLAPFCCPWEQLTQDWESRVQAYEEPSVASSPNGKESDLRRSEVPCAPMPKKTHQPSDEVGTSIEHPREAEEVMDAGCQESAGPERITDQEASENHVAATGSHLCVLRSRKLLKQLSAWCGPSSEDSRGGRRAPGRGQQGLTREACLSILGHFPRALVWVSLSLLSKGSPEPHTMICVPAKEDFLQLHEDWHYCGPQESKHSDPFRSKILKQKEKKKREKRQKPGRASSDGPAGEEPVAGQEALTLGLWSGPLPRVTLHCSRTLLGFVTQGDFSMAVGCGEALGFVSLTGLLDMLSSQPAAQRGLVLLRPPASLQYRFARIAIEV
UniProt Q68D20: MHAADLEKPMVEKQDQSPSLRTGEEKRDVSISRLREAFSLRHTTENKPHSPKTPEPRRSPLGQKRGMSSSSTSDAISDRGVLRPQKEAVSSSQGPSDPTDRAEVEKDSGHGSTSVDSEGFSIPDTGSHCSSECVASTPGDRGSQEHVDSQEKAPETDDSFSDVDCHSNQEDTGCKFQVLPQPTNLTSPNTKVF
UniProt Q8N490: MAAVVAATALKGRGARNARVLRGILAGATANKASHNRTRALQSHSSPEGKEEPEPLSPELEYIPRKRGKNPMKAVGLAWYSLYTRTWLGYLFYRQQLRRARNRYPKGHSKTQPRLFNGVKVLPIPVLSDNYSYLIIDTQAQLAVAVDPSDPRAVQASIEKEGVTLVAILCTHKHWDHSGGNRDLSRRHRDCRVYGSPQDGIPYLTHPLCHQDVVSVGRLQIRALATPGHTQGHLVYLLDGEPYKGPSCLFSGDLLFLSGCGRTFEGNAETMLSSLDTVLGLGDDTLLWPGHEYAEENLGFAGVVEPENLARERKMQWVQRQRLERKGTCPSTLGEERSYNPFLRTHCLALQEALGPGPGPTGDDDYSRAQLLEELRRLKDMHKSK
UniProt Q9H5K3: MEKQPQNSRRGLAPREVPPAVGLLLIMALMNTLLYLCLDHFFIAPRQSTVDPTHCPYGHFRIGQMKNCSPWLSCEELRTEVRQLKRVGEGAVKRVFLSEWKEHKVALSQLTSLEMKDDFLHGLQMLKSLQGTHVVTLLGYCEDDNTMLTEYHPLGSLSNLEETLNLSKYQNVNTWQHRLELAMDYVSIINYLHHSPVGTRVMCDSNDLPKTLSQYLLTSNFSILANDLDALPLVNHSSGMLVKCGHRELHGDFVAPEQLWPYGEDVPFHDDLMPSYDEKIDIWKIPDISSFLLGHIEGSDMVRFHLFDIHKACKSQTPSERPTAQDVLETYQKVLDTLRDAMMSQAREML
UniProt O15160, whole entry, looked up: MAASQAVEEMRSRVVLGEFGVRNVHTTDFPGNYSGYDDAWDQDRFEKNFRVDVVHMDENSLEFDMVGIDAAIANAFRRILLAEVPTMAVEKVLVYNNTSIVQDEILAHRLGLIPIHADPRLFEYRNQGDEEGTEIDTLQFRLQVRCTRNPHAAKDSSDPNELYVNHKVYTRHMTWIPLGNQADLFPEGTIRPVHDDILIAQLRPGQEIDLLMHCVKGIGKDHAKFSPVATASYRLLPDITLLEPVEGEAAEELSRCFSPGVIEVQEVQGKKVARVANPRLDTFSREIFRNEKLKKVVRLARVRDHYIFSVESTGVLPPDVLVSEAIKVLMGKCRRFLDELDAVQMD
UniProt Q8IYS1: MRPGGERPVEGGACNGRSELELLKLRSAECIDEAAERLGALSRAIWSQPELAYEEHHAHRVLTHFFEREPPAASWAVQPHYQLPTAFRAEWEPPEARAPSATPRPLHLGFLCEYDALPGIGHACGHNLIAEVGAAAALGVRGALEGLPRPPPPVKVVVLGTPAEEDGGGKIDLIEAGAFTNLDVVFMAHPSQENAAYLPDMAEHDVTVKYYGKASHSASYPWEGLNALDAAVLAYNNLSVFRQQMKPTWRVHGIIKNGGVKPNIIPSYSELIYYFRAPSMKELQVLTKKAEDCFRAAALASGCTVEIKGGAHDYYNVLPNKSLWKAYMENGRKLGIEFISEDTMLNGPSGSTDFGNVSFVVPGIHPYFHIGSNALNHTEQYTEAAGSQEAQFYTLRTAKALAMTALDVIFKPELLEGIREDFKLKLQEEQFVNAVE
UniProt Q9HBL7: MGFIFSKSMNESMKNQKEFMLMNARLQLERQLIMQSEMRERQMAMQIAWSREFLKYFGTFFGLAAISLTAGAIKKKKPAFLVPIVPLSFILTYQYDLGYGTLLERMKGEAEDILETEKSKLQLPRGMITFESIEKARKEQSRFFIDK
UniProt P53350, whole entry, looked up: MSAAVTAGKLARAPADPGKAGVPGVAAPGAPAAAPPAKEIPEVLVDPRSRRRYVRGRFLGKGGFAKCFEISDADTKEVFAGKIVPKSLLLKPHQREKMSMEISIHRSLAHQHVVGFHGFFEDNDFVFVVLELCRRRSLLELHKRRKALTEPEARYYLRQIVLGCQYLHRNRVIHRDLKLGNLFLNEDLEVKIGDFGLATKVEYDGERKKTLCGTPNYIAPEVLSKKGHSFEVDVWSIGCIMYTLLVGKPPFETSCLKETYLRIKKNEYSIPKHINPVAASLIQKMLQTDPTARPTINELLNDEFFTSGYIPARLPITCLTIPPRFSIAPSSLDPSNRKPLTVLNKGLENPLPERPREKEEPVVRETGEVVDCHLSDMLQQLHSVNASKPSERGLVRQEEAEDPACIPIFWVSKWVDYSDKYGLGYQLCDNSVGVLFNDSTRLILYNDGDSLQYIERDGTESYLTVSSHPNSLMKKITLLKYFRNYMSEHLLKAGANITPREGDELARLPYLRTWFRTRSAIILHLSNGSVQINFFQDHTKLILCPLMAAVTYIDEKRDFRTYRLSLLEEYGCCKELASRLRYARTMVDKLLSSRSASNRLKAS
UniProt P14859: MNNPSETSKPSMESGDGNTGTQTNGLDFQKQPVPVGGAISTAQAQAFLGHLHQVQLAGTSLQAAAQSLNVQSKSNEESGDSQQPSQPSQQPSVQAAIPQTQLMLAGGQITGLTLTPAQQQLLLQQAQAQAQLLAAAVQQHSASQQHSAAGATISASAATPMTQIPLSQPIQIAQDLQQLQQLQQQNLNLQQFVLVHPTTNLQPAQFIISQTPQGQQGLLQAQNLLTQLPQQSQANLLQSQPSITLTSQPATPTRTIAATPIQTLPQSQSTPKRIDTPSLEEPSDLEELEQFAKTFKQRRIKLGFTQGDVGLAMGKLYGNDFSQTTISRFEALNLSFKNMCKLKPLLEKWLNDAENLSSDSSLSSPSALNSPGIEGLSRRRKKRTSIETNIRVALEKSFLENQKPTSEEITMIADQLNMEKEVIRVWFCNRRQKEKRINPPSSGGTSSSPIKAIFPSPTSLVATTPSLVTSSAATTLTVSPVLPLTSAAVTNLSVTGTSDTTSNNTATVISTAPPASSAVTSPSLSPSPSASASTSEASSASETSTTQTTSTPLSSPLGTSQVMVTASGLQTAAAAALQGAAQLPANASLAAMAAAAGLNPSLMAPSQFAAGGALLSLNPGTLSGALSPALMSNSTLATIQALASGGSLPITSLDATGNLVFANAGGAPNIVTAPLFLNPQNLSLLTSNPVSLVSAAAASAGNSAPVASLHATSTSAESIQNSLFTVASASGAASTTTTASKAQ
UniProt Q9NR33: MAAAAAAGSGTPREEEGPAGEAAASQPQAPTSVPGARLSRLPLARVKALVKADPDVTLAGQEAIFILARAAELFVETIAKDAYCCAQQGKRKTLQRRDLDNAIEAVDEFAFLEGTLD
UniProt O15305: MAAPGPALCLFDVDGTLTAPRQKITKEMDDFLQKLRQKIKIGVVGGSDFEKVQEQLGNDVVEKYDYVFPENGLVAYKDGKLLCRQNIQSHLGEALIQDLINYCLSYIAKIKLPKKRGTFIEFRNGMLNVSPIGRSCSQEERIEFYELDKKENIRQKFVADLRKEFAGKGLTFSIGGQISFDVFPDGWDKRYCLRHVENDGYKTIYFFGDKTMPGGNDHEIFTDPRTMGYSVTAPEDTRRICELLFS
UniProt Q14181: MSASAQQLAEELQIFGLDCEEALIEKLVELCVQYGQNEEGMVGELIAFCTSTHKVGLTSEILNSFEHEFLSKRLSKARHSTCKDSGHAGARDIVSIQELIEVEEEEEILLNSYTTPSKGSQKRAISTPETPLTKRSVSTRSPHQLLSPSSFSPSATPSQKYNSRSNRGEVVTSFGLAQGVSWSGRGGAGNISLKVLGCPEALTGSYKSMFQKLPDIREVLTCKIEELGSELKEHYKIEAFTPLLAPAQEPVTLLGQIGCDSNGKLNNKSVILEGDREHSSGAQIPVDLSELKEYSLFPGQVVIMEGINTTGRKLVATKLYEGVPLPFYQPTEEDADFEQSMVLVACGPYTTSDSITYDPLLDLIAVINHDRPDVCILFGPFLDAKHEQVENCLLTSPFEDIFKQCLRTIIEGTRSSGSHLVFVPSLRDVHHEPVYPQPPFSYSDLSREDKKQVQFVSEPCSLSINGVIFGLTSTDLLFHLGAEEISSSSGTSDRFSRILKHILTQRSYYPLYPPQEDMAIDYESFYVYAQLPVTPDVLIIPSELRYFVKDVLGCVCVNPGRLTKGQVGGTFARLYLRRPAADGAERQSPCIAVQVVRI

compound: CC1=C(SC2=C1C(=N[C@H](C3=NN=C(N32)C)CC(=O)N)C4=CC=C(C=C4)Cl)C; test: log2 fold change, soluble protein after heating vs DMSO (PISA); higher = thermal stabilisation; K562 lysate, 10 uM; active = over 0.2 and 3.5 SD of the protein, either way, in both replicates (recomputed)
How it was run: (§1)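 Pellets of K562 cells were dounce-homogenised in PBS pH 7.4 with 1 mM MgCl2, and the crude extract was held at 1 mg/mL protein for a 30 min treatment with 10 μM compound. Aliquots were heated for 3 min over 48°C-58°C and pooled before NP-40 was added to 0.5% at 4°C. The supernatant from 21,000xg for 90 min was quantified by TMTpro 16plex LC-MS/MS with channel sums equalised. Values are reported from duplicates as log-two fold change in thermal stability relative to solvent controls.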

Target | log2 fold change
PON2 (UniProt Q15165) | inactive: -0.069
POLR2A, A0A590UJN4 | inactive: 0.022
POP7 (UniProt O75817) | inactive: 0.284
PMF1 (UniProt Q6P1K2) | inactive: -0.098
POLK (UniProt Q9UBT6) | inactive: 0.028
PNPLA6 (UniProt Q8IY17) | inactive: 0
PLOD1 (UniProt Q02809) | inactive: 0.019
POLG2 (UniProt J3KRM2) | inactive: 0.12
POGLUT1 (UniProt Q8NBL1) | inactive: -0.025
PLP2 (UniProt Q04941) | inactive: 0.203
PLOD2 isoform 2 (UniProt O00469) | inactive: 0.069
PLRG1 (UniProt O43660) | inactive: 0.009
PNO1 (UniProt Q9NRX1) | inactive: 0.001
PPA2 (UniProt Q9H2U2) | inactive: 0.024
PPAT (UniProt Q06203) | inactive: 0.023
POMP (UniProt Q9Y244) | inactive: -0.053
POP1 (UniProt Q99575) | inactive: -0.037
POFUT1 (UniProt Q9H488) | inactive: 0.056
PMS2CL (UniProt Q68D20) | inactive: -0.04

Target | log2 fold change
POLA1 (UniProt P09884) | inactive: 0.01
PNKD isoform 2 (UniProt Q8N490) | inactive: -0.038
POMK (UniProt Q9H5K3) | inactive: -0.114
PNPO (UniProt Q9NVS9) | inactive: -0.05
POLR1C (UniProt O15160) | inactive: 0.026
PM20D2 (UniProt Q8IYS1) | inactive: 0.228
PLGRKT (UniProt Q9HBL7) | inactive: 0.069
POLRMT (UniProt O00411) | inactive: 0.064
PLK1 (UniProt P53350) | inactive: 0.042
POU2F1 isoform 6 (UniProt P14859) | inactive: 0.048
POLR2E (UniProt P19388) | inactive: -0.03
POLR2F (UniProt P61218) | inactive: -0.105
PPCS (UniProt Q9HAB8) | inactive: -0.01
POLR2G (UniProt P62487) | inactive: 0.021
POLE4 (UniProt Q9NR33) | inactive: 0.019
PPIA isoform 2 (UniProt P62937) | inactive: 0.017
PMM2 (UniProt O15305) | inactive: -0.019
POLA2 (UniProt Q14181) | inactive: 0.037
POLG (UniProt P54098) | inactive: 0.287

compound: CC1=C2C(=CC=C1)N=C(N(C2=O)C3=CC=CC=C3C)CN4C=NC5=C(N=CN=C54)N; test: as above
How it was run: as §1

Target | log2 fold change
PON2 (UniProt Q15165) | inactive: 0.024
POLR2A, A0A590UJN4 | inactive: 0.007
POP7 (UniProt O75817) | inactive: -0.072
PMF1 (UniProt Q6P1K2) | inactive: 0.018
PNPLA6 (UniProt Q8IY17) | inactive: -0.004
PLOD1 (UniProt Q02809) | inactive: -0.004
POGLUT1 (UniProt Q8NBL1) | inactive: 0.064
PLP2 (UniProt Q04941) | inactive: 0.033
PLOD2 isoform 2 (UniProt O00469) | inactive: -0.125
PLRG1 (UniProt O43660) | inactive: 0.02
PNO1 (UniProt Q9NRX1) | inactive: 0.012
PPA2 (UniProt Q9H2U2) | inactive: 0.011
PPAT (UniProt Q06203) | inactive: 0
POMP (UniProt Q9Y244) | inactive: 0.045
POP1 (UniProt Q99575) | inactive: 0.014
POFUT1 (UniProt Q9H488) | inactive: -0.013
POLA1 (UniProt P09884) | inactive: 0.037

Target | log2 fold change
PNKD isoform 2 (UniProt Q8N490) | inactive: 0.059
POMK (UniProt Q9H5K3) | inactive: -0.016
PNPO (UniProt Q9NVS9) | inactive: -0.094
POLR1C (UniProt O15160) | inactive: 0.029
PM20D2 (UniProt Q8IYS1) | inactive: 0.087
PLGRKT (UniProt Q9HBL7) | inactive: 0.011
POLRMT (UniProt O00411) | inactive: 0.063
PLK1 (UniProt P53350) | inactive: 0.052
POU2F1 isoform 6 (UniProt P14859) | inactive: 0.07
POLR2E (UniProt P19388) | inactive: 0.035
POLR2F (UniProt P61218) | inactive: -0.163
PPCS (UniProt Q9HAB8) | inactive: 0.062
POLR2G (UniProt P62487) | inactive: -0.003
POLE4 (UniProt Q9NR33) | inactive: -0.012
PMM2 (UniProt O15305) | inactive: -0.015
POLA2 (UniProt Q14181) | inactive: -0.04
POLG (UniProt P54098) | inactive: -0.05
